From the supplement of paper PMC12067093, “Discovery and optimisation of a covalent ligand for TRIM25 and its application to targeted protein ubiquitination” (Chemical Science, 2025)
Some of the results follow.

Amino acid sequences for entries named in this document (tags omitted). A change or cut given only in a name is not applied to a line headed by its entry.
UniProt O75691: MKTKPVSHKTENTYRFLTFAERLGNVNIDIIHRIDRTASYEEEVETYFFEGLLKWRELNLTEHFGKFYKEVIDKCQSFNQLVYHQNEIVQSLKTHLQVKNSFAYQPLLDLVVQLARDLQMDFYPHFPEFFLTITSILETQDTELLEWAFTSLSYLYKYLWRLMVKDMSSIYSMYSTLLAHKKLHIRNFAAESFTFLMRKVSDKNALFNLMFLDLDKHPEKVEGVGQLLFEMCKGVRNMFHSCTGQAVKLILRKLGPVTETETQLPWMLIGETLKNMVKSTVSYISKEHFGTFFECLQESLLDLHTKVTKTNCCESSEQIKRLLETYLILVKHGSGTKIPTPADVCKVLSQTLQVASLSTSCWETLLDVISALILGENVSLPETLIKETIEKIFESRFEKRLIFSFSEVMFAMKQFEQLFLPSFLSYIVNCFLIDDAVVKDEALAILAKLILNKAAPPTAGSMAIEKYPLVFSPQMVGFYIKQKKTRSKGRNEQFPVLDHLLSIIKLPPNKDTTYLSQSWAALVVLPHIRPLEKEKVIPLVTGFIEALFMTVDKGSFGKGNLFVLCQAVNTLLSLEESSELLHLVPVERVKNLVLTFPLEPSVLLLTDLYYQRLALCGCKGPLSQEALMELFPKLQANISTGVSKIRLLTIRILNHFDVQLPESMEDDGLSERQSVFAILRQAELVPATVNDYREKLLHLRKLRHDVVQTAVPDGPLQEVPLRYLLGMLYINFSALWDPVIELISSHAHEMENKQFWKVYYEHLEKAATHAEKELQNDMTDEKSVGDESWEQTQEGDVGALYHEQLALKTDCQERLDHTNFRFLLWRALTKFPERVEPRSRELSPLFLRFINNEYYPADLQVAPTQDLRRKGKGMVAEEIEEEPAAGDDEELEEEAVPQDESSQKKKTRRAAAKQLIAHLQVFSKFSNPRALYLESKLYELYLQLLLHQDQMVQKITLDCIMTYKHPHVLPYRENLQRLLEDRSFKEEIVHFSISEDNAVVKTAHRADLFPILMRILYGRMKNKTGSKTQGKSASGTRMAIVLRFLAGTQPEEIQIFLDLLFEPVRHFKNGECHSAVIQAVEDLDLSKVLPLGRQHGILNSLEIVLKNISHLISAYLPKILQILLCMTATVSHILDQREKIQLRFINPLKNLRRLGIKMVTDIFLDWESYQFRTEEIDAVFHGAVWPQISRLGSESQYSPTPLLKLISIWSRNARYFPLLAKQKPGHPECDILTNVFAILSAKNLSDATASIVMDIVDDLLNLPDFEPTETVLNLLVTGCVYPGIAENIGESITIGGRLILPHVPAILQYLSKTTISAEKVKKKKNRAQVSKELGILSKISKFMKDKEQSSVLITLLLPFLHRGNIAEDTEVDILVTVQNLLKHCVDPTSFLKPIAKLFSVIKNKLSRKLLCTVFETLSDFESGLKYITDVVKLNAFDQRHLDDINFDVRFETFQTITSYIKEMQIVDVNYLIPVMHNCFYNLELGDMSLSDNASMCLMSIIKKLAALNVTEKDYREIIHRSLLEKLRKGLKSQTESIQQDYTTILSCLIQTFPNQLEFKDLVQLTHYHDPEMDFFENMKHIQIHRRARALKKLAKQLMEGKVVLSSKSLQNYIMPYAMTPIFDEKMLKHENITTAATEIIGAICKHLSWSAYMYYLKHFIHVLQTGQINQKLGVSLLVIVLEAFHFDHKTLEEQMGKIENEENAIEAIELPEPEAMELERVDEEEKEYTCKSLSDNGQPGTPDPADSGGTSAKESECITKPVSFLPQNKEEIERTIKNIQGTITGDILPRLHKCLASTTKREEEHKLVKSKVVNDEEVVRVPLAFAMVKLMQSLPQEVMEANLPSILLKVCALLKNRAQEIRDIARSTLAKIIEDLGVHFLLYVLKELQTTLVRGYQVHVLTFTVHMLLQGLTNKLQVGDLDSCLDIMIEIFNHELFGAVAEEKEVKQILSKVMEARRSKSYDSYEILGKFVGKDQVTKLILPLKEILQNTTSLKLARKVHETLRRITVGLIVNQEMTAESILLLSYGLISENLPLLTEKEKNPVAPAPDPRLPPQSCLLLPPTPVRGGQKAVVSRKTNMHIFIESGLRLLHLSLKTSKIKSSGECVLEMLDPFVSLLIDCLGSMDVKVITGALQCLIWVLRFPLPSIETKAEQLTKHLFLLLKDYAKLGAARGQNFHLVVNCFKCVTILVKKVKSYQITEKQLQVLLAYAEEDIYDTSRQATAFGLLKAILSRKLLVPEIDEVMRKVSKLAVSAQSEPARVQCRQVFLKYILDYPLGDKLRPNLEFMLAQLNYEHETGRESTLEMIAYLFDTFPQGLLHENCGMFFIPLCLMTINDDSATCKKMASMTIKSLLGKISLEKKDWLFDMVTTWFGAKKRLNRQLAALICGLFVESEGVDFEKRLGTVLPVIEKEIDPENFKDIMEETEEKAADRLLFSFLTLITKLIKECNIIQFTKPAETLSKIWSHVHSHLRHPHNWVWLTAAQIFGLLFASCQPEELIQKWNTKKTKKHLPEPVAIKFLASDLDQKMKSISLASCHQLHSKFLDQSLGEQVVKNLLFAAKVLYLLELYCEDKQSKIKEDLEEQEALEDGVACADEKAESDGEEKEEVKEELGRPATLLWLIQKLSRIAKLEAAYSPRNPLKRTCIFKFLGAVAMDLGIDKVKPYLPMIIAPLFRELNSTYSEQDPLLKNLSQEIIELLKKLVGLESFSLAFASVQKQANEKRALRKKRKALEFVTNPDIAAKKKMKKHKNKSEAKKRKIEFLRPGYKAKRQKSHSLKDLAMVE
UniProt Q9P1Q0: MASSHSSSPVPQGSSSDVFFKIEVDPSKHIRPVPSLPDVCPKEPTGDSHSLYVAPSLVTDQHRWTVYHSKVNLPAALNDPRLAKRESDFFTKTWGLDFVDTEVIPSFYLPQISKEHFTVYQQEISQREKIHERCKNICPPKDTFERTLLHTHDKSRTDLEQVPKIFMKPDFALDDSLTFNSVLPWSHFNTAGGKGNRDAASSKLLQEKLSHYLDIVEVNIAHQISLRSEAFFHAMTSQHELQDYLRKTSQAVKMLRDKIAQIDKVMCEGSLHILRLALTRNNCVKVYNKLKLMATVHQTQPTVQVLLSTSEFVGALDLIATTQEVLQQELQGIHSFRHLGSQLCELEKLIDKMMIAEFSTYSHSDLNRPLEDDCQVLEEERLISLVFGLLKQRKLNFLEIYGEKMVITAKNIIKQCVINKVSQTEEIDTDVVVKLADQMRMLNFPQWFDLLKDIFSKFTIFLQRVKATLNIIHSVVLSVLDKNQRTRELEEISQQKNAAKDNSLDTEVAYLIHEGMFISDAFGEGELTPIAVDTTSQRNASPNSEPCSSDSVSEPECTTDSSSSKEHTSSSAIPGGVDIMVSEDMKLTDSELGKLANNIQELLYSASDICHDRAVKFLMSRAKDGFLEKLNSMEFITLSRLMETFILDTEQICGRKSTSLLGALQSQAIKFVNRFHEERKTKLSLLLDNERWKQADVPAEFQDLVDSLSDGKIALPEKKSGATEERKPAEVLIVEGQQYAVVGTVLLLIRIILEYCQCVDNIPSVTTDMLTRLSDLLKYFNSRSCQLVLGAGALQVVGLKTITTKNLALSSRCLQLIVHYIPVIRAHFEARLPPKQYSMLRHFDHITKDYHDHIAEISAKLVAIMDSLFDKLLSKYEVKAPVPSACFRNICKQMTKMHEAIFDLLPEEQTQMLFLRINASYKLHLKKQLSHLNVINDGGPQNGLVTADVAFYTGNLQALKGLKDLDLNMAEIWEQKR
UniProt P26640: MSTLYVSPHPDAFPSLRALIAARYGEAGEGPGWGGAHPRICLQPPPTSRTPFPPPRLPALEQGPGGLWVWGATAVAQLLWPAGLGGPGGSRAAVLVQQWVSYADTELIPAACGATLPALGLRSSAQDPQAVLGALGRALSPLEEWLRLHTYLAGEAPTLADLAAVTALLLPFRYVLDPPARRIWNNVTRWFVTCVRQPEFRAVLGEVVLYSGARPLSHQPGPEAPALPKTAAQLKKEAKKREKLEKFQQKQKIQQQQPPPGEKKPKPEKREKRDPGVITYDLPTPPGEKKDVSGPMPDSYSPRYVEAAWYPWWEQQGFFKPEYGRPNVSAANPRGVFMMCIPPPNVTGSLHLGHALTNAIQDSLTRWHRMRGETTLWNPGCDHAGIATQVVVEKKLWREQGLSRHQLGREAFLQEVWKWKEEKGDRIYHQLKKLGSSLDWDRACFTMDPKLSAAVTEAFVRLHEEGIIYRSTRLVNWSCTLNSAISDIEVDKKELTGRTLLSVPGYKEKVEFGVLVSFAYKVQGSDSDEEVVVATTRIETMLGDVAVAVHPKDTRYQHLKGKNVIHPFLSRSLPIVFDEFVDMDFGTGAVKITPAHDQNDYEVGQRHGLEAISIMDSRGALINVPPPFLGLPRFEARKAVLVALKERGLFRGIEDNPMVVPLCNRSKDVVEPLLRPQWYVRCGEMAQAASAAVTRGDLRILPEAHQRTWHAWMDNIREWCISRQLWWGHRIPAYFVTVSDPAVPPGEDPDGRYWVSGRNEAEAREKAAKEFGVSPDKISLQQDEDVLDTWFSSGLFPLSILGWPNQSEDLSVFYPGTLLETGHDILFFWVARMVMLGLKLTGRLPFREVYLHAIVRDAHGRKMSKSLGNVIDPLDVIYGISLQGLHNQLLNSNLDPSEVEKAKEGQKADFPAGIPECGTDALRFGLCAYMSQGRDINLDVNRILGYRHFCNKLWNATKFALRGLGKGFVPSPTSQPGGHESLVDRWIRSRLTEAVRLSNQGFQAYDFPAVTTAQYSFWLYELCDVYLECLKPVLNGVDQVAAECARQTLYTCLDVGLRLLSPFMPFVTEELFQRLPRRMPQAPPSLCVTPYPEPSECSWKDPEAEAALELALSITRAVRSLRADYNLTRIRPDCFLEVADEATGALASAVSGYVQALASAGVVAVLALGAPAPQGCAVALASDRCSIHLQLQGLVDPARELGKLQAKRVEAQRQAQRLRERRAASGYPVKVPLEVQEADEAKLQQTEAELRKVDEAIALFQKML
UniProt Q96JC1: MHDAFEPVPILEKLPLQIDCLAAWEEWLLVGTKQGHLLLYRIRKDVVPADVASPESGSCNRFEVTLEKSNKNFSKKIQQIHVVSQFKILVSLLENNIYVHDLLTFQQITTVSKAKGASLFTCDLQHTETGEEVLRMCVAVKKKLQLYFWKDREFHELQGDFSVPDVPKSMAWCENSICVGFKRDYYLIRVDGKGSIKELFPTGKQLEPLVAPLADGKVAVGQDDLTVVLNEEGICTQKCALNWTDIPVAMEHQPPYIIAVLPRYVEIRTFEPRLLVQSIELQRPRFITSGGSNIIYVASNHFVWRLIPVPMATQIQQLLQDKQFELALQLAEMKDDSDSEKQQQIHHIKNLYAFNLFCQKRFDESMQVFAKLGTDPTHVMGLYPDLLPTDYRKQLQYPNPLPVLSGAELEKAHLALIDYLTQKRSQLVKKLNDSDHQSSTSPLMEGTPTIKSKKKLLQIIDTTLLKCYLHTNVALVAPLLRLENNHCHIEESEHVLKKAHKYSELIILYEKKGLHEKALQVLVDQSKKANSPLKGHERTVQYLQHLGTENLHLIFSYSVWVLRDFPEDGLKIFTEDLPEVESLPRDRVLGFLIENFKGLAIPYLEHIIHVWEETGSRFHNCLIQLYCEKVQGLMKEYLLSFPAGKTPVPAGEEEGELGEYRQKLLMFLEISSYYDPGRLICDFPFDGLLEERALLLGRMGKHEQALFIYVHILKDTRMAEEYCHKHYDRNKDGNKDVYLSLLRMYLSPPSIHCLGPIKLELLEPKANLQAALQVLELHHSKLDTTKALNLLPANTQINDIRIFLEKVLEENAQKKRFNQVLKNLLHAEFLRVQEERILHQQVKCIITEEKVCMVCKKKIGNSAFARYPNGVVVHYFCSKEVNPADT
UniProt Q4G0F5, whole entry, looked up: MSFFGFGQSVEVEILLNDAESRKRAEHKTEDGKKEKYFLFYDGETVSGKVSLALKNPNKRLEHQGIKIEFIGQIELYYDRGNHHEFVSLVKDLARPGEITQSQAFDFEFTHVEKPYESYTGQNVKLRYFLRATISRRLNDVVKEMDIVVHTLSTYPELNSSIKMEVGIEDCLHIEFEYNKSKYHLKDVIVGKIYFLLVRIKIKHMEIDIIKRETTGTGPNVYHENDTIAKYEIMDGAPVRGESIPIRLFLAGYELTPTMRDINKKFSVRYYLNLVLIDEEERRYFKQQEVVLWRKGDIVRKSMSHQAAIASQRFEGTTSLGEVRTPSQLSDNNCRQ

Compound: Cc1cc(ccc1-c1ccccc1)C(=O)N1CCCN(CC1)C(=O)CCl [compound 10]
Test: probe-labelled cysteine peptide fold change vs DMSO (competition) (log2 fold change); higher = less target engagement (more negative = stronger competition)
Conditions: THP-1, incubation time: 4 h
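Also: competitive profiling in live THP-1 cells: cysteine peptides tagged with an iodoacetamide desthiobiotin (IA-DTB) probe, intensity after compound treatment relative to DMSO-treated cells.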

Target	probe-labelled cysteine peptide fold change (10 µM)	probe-labelled cysteine peptide fold change (50 µM)
VPS13C_Q709C8_1998_TCTLDDLR (UniProt Q709C8)	0.104	0.414
UTP20_O75691_2594_IKEDLEEQEALEDGVACADEK (UniProt O75691)	-0.135	0.256
USP9Y_O00507_1735_ICQGCPHRYECEESFTTLNVDIR (UniProt O00507)	0.126	-0.0682
VPS18_Q9P253_421_ERPDCLDTVLAR (UniProt Q9P253)	-0.184	-0.179
VPS54_Q9P1Q0_653_LMETFILDTEQICGR (UniProt Q9P1Q0)	-0.0143	0.122
VARS_P26640_194_WFVTCVR (UniProt P26640)	-0.398	0.162
VARS_P26640_381_MRGETTLWNPGCDHAGIATQVVVEK (UniProt P26640)	-0.0626	-0.0755
VPS4A_Q9UN37_233_QHKPSIIFIDEVDSLCGSR (UniProt Q9UN37)	0.0504	-0.0399
VPS39_Q96JC1_681_LICDFPFDGLLEER (UniProt Q96JC1)	0.24	-0.133
VPS26B_Q4G0F5_334_TPSQLSDNNCRQ (UniProt Q4G0F5)	-0.205	-0.321
VCPIP1_Q96JH7_469+472_CLLCGALSELHVPPEWLAPGGK (UniProt Q96JH7)	-0.12	0.233
VPS29_Q9UBQ0_41_IQHILCTGNLCTK (UniProt Q9UBQ0)	-0.0356	-0.187
VPS52_Q8N1B4_119_SIRDYIQESENIASLHNQITACDAVLER (UniProt Q8N1B4)	0.0101	-0.415
UTRN_P46939_2185_ECIQEPSSVSQTR (UniProt P46939)	-0.215	-0.25

Complete entries from above:
VPS39_Q96JC1_681_LICDFPFDGLLEER (UniProt Q96JC1) reads probe-labelled cysteine peptide fold change (10 µM) = 0.24; probe-labelled cysteine peptide fold change (50 µM) = -0.133
UTP20_O75691_2594_IKEDLEEQEALEDGVACADEK (UniProt O75691) reads probe-labelled cysteine peptide fold change (10 µM) = -0.135; probe-labelled cysteine peptide fold change (50 µM) = 0.256
